We go through ten compounds from PubChem BioAssay AID248 (DTP/NCI, 2004).

The list is a part of this screen's results and no random one: it covers a few groups of compounds. Other doses and runs of a compound may be missing. T/C: endpoint of the treated group in % of that of the vehicle group. Some doses have a count of surviving animals in place of a T/C: the source files T/C as zero there, which appears to mark a toxic dose or a test without result, not a measured value. Some survivor counts are full or nearly so, which does not show that the dose was tolerated: the source hardly ever lists a survival T/C far under the control, and the zero likely stands for such cases as well. Counts of survivors are from the toxicity check (mostly the fifth day) where no day follows; animals may have died later. Schedules are NCI's codes, taken here to give the interval after Q, in days (D) or hours (H), and the number of doses after X. Some schedules carry Z or #; the key to these is not given. Where survival is the endpoint, this PubChem deposit counts one and a half times the control or more as active, and values a quarter to a half above the control carry no call in these data; other NCI protocols may use other cut-offs. Some entries show no survivor count and are marked so; the dose need not have been tolerated. Some T/C values are followed by the survivors on the day toxicity was checked, most often the fifth; without a count or a note in brackets, all were alive then.

The test concerns L1210 leukemia ip in BDF1 mice, survival T/C. The test can be described thus: NCI In Vivo Anticancer Drug Screen. Data for tumor model L1210 Leukemia (intraperitoneal) in B6D2F1 (BDF1) mice. The following applies: higher T/C = longer survival.
Where [1] appears, read: T/C endpoint: mean survival time, dose: 100.0 mg/kg/injection, schedule: Q01DX001 (ip), vehicle: saline with Tween-80.

Turning to `CCP(=O)(Nc1cccc(C(F)(F)F)c1)Nc1cccc(C(F)(F)F)c1`, the T/C was 96 % of control [survivor count not shown] (T/C endpoint: mean survival time, dose: 100.0 mg/kg/injection, schedule: Q01DX009 (ip), vehicle: Klucel (hydroxypropylcellulose) (HPC)); 101 % of control [survivor count not shown] (T/C endpoint: mean survival time, dose: 200.0 mg/kg/injection, schedule: Q01DX009 (ip), vehicle: Klucel (hydroxypropylcellulose) (HPC)); 91 % of control [survivor count not shown] (T/C endpoint: mean survival time, dose: 400.0 mg/kg/injection, schedule: Q01DX009 (ip), vehicle: Klucel (hydroxypropylcellulose) (HPC)).

Regarding `O=C(SCCCl)c1cc([N+](=O)[O-])cc([N+](=O)[O-])c1`, the T/C by setting is: (T/C endpoint: mean survival time, dose: 10.0 mg/kg/injection, schedule: Q01DX010 (ip), vehicle: other) 95 % of control; (T/C endpoint: mean survival time, dose: 30.0 mg/kg/injection, schedule: Q01DX010 (ip), vehicle: other) 93 % of control; (T/C endpoint: mean survival time, dose: 100.0 mg/kg/injection, schedule: Q01DX010 (ip), vehicle: other) 90 % of control; (T/C endpoint: mean survival time, dose: 300.0 mg/kg/injection, schedule: Q01DX010 (ip), vehicle: other) 109 % of control; (T/C endpoint: mean survival time, dose: 500.0 mg/kg/injection, schedule: Q01DX Z (ip), vehicle: saline) 103 % of control. The survivor count (T/C endpoint: mean survival time, dose: 300.0 mg/kg/injection, schedule: Q01DX Z (ip), vehicle: saline) is 6 of 6.

Take `CN(CCCl)CC1OC(O)C(O)C(O)C1O` (configuration not stated): the T/C reads like this: (T/C endpoint: mean survival time, dose: 5.6 mg/kg/injection, schedule: Q01DX Z (ip), vehicle: saline) 121 % of control; (T/C endpoint: mean survival time, dose: 11.3 mg/kg/injection, schedule: Q01DX Z (ip), vehicle: saline) 144 % of control; (T/C endpoint: mean survival time, dose: 18.0 mg/kg/injection, schedule: Q01DX Z (ip), vehicle: methylcellulose (MC)) 184 % of control; (T/C endpoint: mean survival time, dose: 22.5 mg/kg/injection, schedule: Q01DX Z (ip), vehicle: saline) 152 % of control; (T/C endpoint: mean survival time, dose: 27.0 mg/kg/injection, schedule: Q01DX Z (ip), vehicle: methylcellulose (MC)) 182 % of control; (T/C endpoint: mean survival time, dose: 40.0 mg/kg/injection, schedule: Q01DX Z (ip), vehicle: methylcellulose (MC)) 146 % of control. Besides, the T/C (T/C endpoint: mean survival time, dose: 45.0 mg/kg/injection, schedule: Q01DX Z (ip), vehicle: saline) was 144 % of control. Moreover, the survivor count was 4 of 6 (T/C endpoint: mean survival time, dose: 60.0 mg/kg/injection, schedule: Q01DX Z (ip), vehicle: methylcellulose (MC)); 2 of 6 (T/C endpoint: mean survival time, dose: 90.0 mg/kg/injection, schedule: Q01DX Z (ip), vehicle: methylcellulose (MC)); 3 of 6 (T/C endpoint: mean survival time, dose: 90.0 mg/kg/injection, schedule: Q01DX Z (ip), vehicle: saline).

Take `O=P1(N(CCCl)C(CCl)CCl)NCCCO1` (configuration not stated): the T/C was 94 % of control (T/C endpoint: mean survival time, dose: 12.5 mg/kg/injection, schedule: Q01DX Z (ip), vehicle: other); 103 % of control (T/C endpoint: mean survival time, dose: 25.0 mg/kg/injection, schedule: Q01DX Z (ip), vehicle: other); 92 % of control (T/C endpoint: mean survival time, dose: 50.0 mg/kg/injection, schedule: Q01DX Z (ip), vehicle: other); 117 % of control (T/C endpoint: mean survival time, dose: 100.0 mg/kg/injection, schedule: Q01DX Z (ip), vehicle: other).

Take `O=[N+]([O-])c1cccc(O)c1[N+](=O)[O-]`: the T/C (T/C endpoint: mean survival time, dose: 50.0 mg/kg/injection, schedule: Q01DX009 (ip), vehicle: other) was 92 % of control and the T/C (T/C endpoint: mean survival time, dose: 100.0 mg/kg/injection, schedule: Q01DX009 (ip), vehicle: other) is 92 % of control. The survivor count (T/C endpoint: mean survival time, dose: 200.0 mg/kg/injection, schedule: Q01DX009 (ip), vehicle: other) is 6 of 6.

Regarding `Clc1ccc(SC2CCCC2Cl)cc1` (configuration not stated), the T/C runs as follows: (T/C endpoint: mean survival time, dose: 100.0 mg/kg/injection, schedule: Q01DX001 (ip), vehicle: carboxymethylcellulose (CMC)) 98 % of control; (T/C endpoint: mean survival time, dose: 200.0 mg/kg/injection, schedule: Q01DX001 (ip), vehicle: carboxymethylcellulose (CMC)) 88 % of control; (T/C endpoint: mean survival time, dose: 400.0 mg/kg/injection, schedule: Q01DX001 (ip), vehicle: carboxymethylcellulose (CMC)) 93 % of control.

On to `CN(CCCl)CC1COc2ccccc2O1` (configuration not stated), for which the T/C (T/C endpoint: mean survival time, dose: 75.0 mg/kg/injection, schedule: Q01DX001 (ip), vehicle: saline) is 104 % of control and the T/C (T/C endpoint: mean survival time, dose: 150.0 mg/kg/injection, schedule: Q01DX001 (ip), vehicle: saline) is 112 % of control [4 of 6 alive]. The survivor count (T/C endpoint: mean survival time, dose: 300.0 mg/kg/injection, schedule: Q01DX001 (ip), vehicle: saline) was 0 of 6.

With `O=[N+]([O-])c1ccc(N/N=C\c2ccc(/C=N/Nc3ccc([N+](=O)[O-])cc3[N+](=O)[O-])cc2)c([N+](=O)[O-])c1`, the T/C is 98 % of control (T/C endpoint: mean survival time, dose: 6.25 mg/kg/injection, schedule: Q01DX001 (ip), vehicle: saline with Tween-80); 98 % of control (T/C endpoint: mean survival time, dose: 12.5 mg/kg/injection, schedule: Q01DX001 (ip), vehicle: saline with Tween-80); 91 % of control (T/C endpoint: mean survival time, dose: 25.0 mg/kg/injection, schedule: Q01DX001 (ip), vehicle: saline with Tween-80); 90 % of control under setting [1]; 90 % of control (T/C endpoint: mean survival time, dose: 400.0 mg/kg/injection, schedule: Q01DX001 (ip), vehicle: saline with Tween-80). Also, the survivor count (T/C endpoint: mean survival time, dose: 50.0 mg/kg/injection, schedule: Q01DX001 (ip), vehicle: saline with Tween-80) was 3 of 3; the survivor count under setting [1] is listed as 3 of 3; the survivor count (T/C endpoint: mean survival time, dose: 200.0 mg/kg/injection, schedule: Q01DX001 (ip), vehicle: saline with Tween-80) was 3 of 3.

For the compound `Cc1cc(Cl)ccc1Nc1c([N+](=O)[O-])cc([N+](=O)[O-])cc1[N+](=O)[O-]`, the T/C was 94 % of control [survivor count not shown] (T/C endpoint: mean survival time, dose: 100.0 mg/kg/injection, schedule: Q01DX009 (ip), vehicle: saline); 89 % of control [survivor count not shown] (T/C endpoint: mean survival time, dose: 200.0 mg/kg/injection, schedule: Q01DX009 (ip), vehicle: saline); 86 % of control [survivor count not shown] (T/C endpoint: mean survival time, dose: 400.0 mg/kg/injection, schedule: Q01DX009 (ip), vehicle: saline).

In the case of `COc1cc2c(c3oc4cccc(O)c4c(=O)c13)[C@@H]1C=CO[C@@H]1O2`, the T/C is 119 % of control (T/C endpoint: mean survival time, dose: 3.75 mg/kg/injection, schedule: Q01DX009 (ip), vehicle: Klucel (hydroxypropylcellulose) (HPC)); 110 % of control (T/C endpoint: mean survival time, dose: 7.5 mg/kg/injection, schedule: Q01DX009 (ip), vehicle: Klucel (hydroxypropylcellulose) (HPC)); 138 % of control (T/C endpoint: mean survival time, dose: 15.0 mg/kg/injection, schedule: Q01DX009 (ip), vehicle: Klucel (hydroxypropylcellulose) (HPC)); 132 % of control (T/C endpoint: mean survival time, dose: 30.0 mg/kg/injection, schedule: Q01DX009 (ip), vehicle: Klucel (hydroxypropylcellulose) (HPC)); 102 % of control (T/C endpoint: mean survival time, dose: 50.0 mg/kg/injection, schedule: Q01DX001 (ip), vehicle: saline); 165 % of control (T/C endpoint: mean survival time, dose: 60.0 mg/kg/injection, schedule: Q01DX009 (ip), vehicle: Klucel (hydroxypropylcellulose) (HPC)). For the same compound, the T/C is 107 % of control (T/C endpoint: mean survival time, dose: 100.0 mg/kg/injection, schedule: Q01DX001 (ip), vehicle: saline); 130 % of control (T/C endpoint: mean survival time, dose: 200.0 mg/kg/injection, schedule: Q01DX001 (ip), vehicle: saline); 114 % of control (T/C endpoint: median survival time, dose: 4.0 mg/kg/injection, schedule: Q01DX009 (ip), vehicle: saline); 128 % of control [5 of 6 alive] (T/C endpoint: median survival time, dose: 8.0 mg/kg/injection, schedule: Q01DX009 (ip), vehicle: saline); 121 % of control (T/C endpoint: median survival time, dose: 16.0 mg/kg/injection, schedule: Q01DX009 (ip), vehicle: saline); 157 % of control [5 of 6 alive] (T/C endpoint: median survival time, dose: 32.0 mg/kg/injection, schedule: Q01DX009 (ip), vehicle: saline). The T/C by setting is: (T/C endpoint: median survival time, dose: 64.0 mg/kg/injection, schedule: Q01DX009 (ip), vehicle: saline) 200 % of control [5 of 6 alive]; (T/C endpoint: median survival time, dose: 128.0 mg/kg/injection, schedule: Q01DX009 (ip), vehicle: saline) 135 % of control.
